PubChem BioAssay AID1224830, NIAID, 2016
Test: 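Genes whose knock-down alters the TNF-alpha reporter response to LPS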 (primary screen). Cells: human THP-1 monocytic leukaemia cells, TNF dual-luciferase reporter clone, PMA-differentiated to macrophage-like cells. Reagents: siRNA pool against human genes, 50 nM. Time to read-out: LPS for 4 h, given about 3 days after siRNA transfection. Treatment: bacterial LPS (TLR4 ligand), 10 ng/ml. Read-out: 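Ratio of firefly to renilla light, scaled to the plate median and expressed as a robust z-score per replicate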. Reading the numbers: TNF reporter robust z-score: higher = stronger TNF reporter response to LPS. Rule for the call: 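Each well counts as active if its z-score is over 2.8 or under -1.5; controls are left without a call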.
Here is a random part of about 18,000 reagents tested. About 2,900 of all reagents (16%) were called active. 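Calls are made per well; low scores hint the gene aids the LPS response, high scores that it dampens it.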 Repeated entries: four replicate wells of each siRNA pool.

| gene knocked down | PubChem SID | TNF reporter robust z-score | activity call |
| --- | --- | --- | --- |
| PDPR (pyruvate dehydrogenase phosphatase regulatory subunit) | SID315457380 | -0.31 | inactive |
| PDPR (pyruvate dehydrogenase phosphatase regulatory subunit) | SID315457380 | 0.51 | inactive |
| PDPR (pyruvate dehydrogenase phosphatase regulatory subunit) | SID315457380 | 1.57 | inactive |
| PDPR (pyruvate dehydrogenase phosphatase regulatory subunit) | SID315457380 | 0.38 | inactive |
| SLC1A7 | SID315451452 | -0.56 | inactive |
| SLC1A7 | SID315451452 | 6.59 | active |
| SLC1A7 | SID315451452 | 0.05 | inactive |
| SLC1A7 | SID315451452 | -1.82 | active |
| EFHD2 (EF-hand domain family member D2) | SID315459251 | 0.67 | inactive |
| EFHD2 (EF-hand domain family member D2) | SID315459251 | 0.83 | inactive |
| EFHD2 (EF-hand domain family member D2) | SID315459251 | 2.17 | inactive |
| EFHD2 (EF-hand domain family member D2) | SID315459251 | -0.26 | inactive |
| LCE3C (late cornified envelope 3C) | SID315464277 | -0.97 | inactive |
| LCE3C (late cornified envelope 3C) | SID315464277 | 0.2 | inactive |
| LCE3C (late cornified envelope 3C) | SID315464277 | -1.23 | inactive |
| LCE3C (late cornified envelope 3C) | SID315464277 | -1.14 | inactive |
| CYP27A1 (cytochrome P450 family 27 subfamily A member 1) | SID315448229 | -1.92 | active |
| CYP27A1 (cytochrome P450 family 27 subfamily A member 1) | SID315448229 | -1.68 | active |
| CYP27A1 (cytochrome P450 family 27 subfamily A member 1) | SID315448229 | -1.91 | active |
| CYP27A1 (cytochrome P450 family 27 subfamily A member 1) | SID315448229 | -1.65 | active |
| UPF3B (UPF3B regulator of nonsense mediated mRNA decay) | SID315459086 | 0.42 | inactive |
| UPF3B (UPF3B regulator of nonsense mediated mRNA decay) | SID315459086 | 0.94 | inactive |
| UPF3B (UPF3B regulator of nonsense mediated mRNA decay) | SID315459086 | 0.78 | inactive |
| UPF3B (UPF3B regulator of nonsense mediated mRNA decay) | SID315459086 | 1.06 | inactive |
| UTP14C (UTP14C small subunit processome component) | SID315453511 | -0.29 | inactive |
| UTP14C (UTP14C small subunit processome component) | SID315453511 | -0.31 | inactive |
| UTP14C (UTP14C small subunit processome component) | SID315453511 | -0.27 | inactive |
| UTP14C (UTP14C small subunit processome component) | SID315453511 | 0.22 | inactive |
| TM9SF1 (transmembrane 9 superfamily member 1) | SID315454178 | -0.16 | inactive |
| TM9SF1 (transmembrane 9 superfamily member 1) | SID315454178 | 0.53 | inactive |
| TM9SF1 (transmembrane 9 superfamily member 1) | SID315454178 | 0.71 | inactive |
| TM9SF1 (transmembrane 9 superfamily member 1) | SID315454178 | 0.07 | inactive |
| DAB1 (DAB adaptor protein 1) | SID315448232 | 2.71 | inactive |
| DAB1 (DAB adaptor protein 1) | SID315448232 | 1.46 | inactive |
| DAB1 (DAB adaptor protein 1) | SID315448232 | 0.88 | inactive |
| DAB1 (DAB adaptor protein 1) | SID315448232 | -0.63 | inactive |
| TBX2 (T-box transcription factor 2) | SID315451770 | 1.03 | inactive |
| TBX2 (T-box transcription factor 2) | SID315451770 | 3.1 | active |
| TBX2 (T-box transcription factor 2) | SID315451770 | 1.69 | inactive |
| TBX2 (T-box transcription factor 2) | SID315451770 | -0.07 | inactive |
| TRNAU1AP (tRNA selenocysteine 1 associated protein 1) | SID315457293 | 0.45 | inactive |
| TRNAU1AP (tRNA selenocysteine 1 associated protein 1) | SID315457293 | 0.8 | inactive |
| TRNAU1AP (tRNA selenocysteine 1 associated protein 1) | SID315457293 | -1.59 | active |
| TRNAU1AP (tRNA selenocysteine 1 associated protein 1) | SID315457293 | -0.34 | inactive |
| SLC6A2 | SID315451469 | -0.84 | inactive |
| SLC6A2 | SID315451469 | -0.2 | inactive |
| SLC6A2 | SID315451469 | -0.04 | inactive |
| SLC6A2 | SID315451469 | 0 | inactive |
| AP1S2 (adaptor related protein complex 1 subunit sigma 2) | SID315452917 | 3.18 | active |
| AP1S2 (adaptor related protein complex 1 subunit sigma 2) | SID315452917 | 1.18 | inactive |
| AP1S2 (adaptor related protein complex 1 subunit sigma 2) | SID315452917 | 2.66 | inactive |
| AP1S2 (adaptor related protein complex 1 subunit sigma 2) | SID315452917 | -0.84 | inactive |
| TPSG1 (tryptase gamma 1) | SID315455488 | 1.7 | inactive |
| TPSG1 (tryptase gamma 1) | SID315455488 | 0.75 | inactive |
| TPSG1 (tryptase gamma 1) | SID315455488 | 2.1 | inactive |
| TPSG1 (tryptase gamma 1) | SID315455488 | 1.78 | inactive |
| TTC32 (tetratricopeptide repeat domain 32) | SID315461862 | -0.86 | inactive |
| TTC32 (tetratricopeptide repeat domain 32) | SID315461862 | 0.27 | inactive |
| TTC32 (tetratricopeptide repeat domain 32) | SID315461862 | -0.68 | inactive |
| TTC32 (tetratricopeptide repeat domain 32) | SID315461862 | 0.83 | inactive |
| ZNF219 (zinc finger protein 219) | SID315456562 | -0.57 | inactive |
| ZNF219 (zinc finger protein 219) | SID315456562 | 0.27 | inactive |
| ZNF219 (zinc finger protein 219) | SID315456562 | -0.2 | inactive |
| ZNF219 (zinc finger protein 219) | SID315456562 | 0.95 | inactive |
| MYPN (myopalladin) | SID315460449 | -1.12 | inactive |
| MYPN (myopalladin) | SID315460449 | -0.67 | inactive |
| MYPN (myopalladin) | SID315460449 | -0.99 | inactive |
| MYPN (myopalladin) | SID315460449 | -0.77 | inactive |
| BRPF1 (bromodomain and PHD finger containing 1) | SID315452330 | 0.68 | inactive |
| BRPF1 (bromodomain and PHD finger containing 1) | SID315452330 | 0.11 | inactive |
| BRPF1 (bromodomain and PHD finger containing 1) | SID315452330 | 1.16 | inactive |
| BRPF1 (bromodomain and PHD finger containing 1) | SID315452330 | 1.83 | inactive |
| IFIH1 (interferon induced with helicase C domain 1) | SID315458846 | -2.34 | active |
| IFIH1 (interferon induced with helicase C domain 1) | SID315458846 | -0.01 | inactive |
| IFIH1 (interferon induced with helicase C domain 1) | SID315458846 | -0.93 | inactive |
| IFIH1 (interferon induced with helicase C domain 1) | SID315458846 | -0.26 | inactive |
